Results are given in words; binding and its absence hold for the method and conditions named. In cells and extracts the contact can be indirect. Some binding calls cover weakened binding; strength is not graded here.
Target: T1, CD44 (mouse (endogenous in cultured keratinocytes and DBA/1 epidermis)) (UniProt P15379)
T1 sequence: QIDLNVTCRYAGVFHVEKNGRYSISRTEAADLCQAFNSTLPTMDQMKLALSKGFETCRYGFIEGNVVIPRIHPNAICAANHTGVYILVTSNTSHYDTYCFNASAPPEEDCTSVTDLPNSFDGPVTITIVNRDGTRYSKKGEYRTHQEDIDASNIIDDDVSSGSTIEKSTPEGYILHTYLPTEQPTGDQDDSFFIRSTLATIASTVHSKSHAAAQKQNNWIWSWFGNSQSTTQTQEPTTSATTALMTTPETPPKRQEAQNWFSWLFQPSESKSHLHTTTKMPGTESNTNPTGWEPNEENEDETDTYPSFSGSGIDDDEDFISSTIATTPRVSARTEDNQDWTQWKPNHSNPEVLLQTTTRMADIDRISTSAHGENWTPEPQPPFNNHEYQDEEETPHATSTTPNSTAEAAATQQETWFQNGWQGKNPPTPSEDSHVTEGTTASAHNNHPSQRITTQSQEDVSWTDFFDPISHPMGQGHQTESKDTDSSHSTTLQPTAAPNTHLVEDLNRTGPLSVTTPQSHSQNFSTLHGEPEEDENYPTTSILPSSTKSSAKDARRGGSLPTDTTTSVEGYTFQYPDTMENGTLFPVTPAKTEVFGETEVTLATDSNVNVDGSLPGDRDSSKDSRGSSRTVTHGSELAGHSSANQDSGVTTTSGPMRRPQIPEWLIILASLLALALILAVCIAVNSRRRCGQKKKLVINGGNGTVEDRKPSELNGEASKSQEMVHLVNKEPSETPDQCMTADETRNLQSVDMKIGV
Assay: co-IP; anti-CD44 antibodies with protein A+G agarose beads, overnight at 4 °C, in the presence of BSA and rat IgG; lysates of cultured keratinocytes and of epidermis of DBA/1 mouse skin; Western blot with anti-erbB1; mock: isotype-matched rat IgG

Q: How did the binding turn out when “erbB1 (from UniProt Q01279 25-1210) (receptor)” was run?
A: Its binding is “binds”.

From paper PMC1702558
